Data on two sequences can be found in publication doi:10.1101/2021.10.20.465166.

For at least one entry, the source does not settle the construct or the ends of the probe. At least one verdict was read from the data and is not stated in words by the source.

The subject of the data set is C/EBPα BRM2. In words: EMSA.

On to “CCCCCACCCAGCCAGGCCAAC [PU.1 intron 4 RNA (PU.1i4)]”, for which the binding result is recorded as “binds”.
To “UUCCCACUCACCCAGCACCC [CTBP1 intron 2 RNA (CTBP1i2)]” belongs “binds”.
